Measured values taken from patent US20230295226A1.

What was measured:
Experiment in all cases: protein binding radioassay
[1] = molecular target: delta opioid receptor (DOR)
[2] = molecular target: kappa opioid receptor (KOR)
mu opioid receptor (MOR) = molecular target: mu opioid receptor (MOR)

Measured: binding

YASPKCFRYPNGVLACT (cyclic through a disulfide bond Cys6-Cys16 (cyclo[C6...C16])) [Odorranalectin (OL)]
no binding: all assays above

These are yes or no findings as the source states them, for the method shown.
